No constants are given. Whether binding was seen depends on the method and setting. Binding seen in cells or lysates may run through a third protein. A yes stands for co-enrichment or nearness to the bait. Other partners may have been found.
B1: RARS (protein, UniProt P54136 1-660)
chain: MDVLVSECSARLLQQEEEIKSLTAEIDRLKNCGCLGASPNLEQLQEENLKLKYRLNILRKSLQAERNKPTKNMINIISRLQEVFGHAIKAAYPDLENPPLLVTPSQQAKFGDYQCNSAMGISQMLKTKEQKVNPREIAENITKHLPDNECIEKVEIAGPGFINVHLRKDFVSEQLTSLLVNGVQLPALGENKKVIVDFSSPNIAKEMHVGHLRSTIIGESISRLFEFAGYDVLRLNHVGDWGTQFGMLIAHLQDKFPDYLTVSPPIGDLQVFYKESKKRFDTEEEFKKRAYQCVVLLQGKNPDITKAWKLICDVSRQELNKIYDALDVSLIERGESFYQDRMNDIVKEFEDRGFVQVDDGRKIVFVPGCSIPLTIVKSDGGYTYDTSDLAAIKQRLFEEKADMIIYVVDNGQSVHFQTIFAAAQMIGWYDPKVTRVFHAGFGVVLGEDKKKFKTRSGETVRLMDLLGEGLKRSMDKLKEKERDKVLTAEELNAAQTSVAYGCIKYADLSHNRLNDYIFSFDKMLDDRGNTAAYLLYAFTRIRSIARLANIDEEMLQKAARETKILLDHEKEWKLGRCILRFPEILQKILDDLFLHTLCDYIYELATAFTEFYDSCYCVEKDRQTGKILKVNMWRMLLCEAVAAVMAKGFDILGIKPVQRM
B2: EHD2 (protein, UniProt Q9NZN4 1-543)
chain: MFSWLKRGGARGQQPEAIRTVTSALKELYRTKLLPLEEHYRFGAFHSPALEDADFDGKPMVLVAGQYSTGKTSFIQYLLEQEVPGSRVGPEPTTDCFVAVMHGDTEGTVPGNALVVDPDKPFRKLNPFGNTFLNRFMCAQLPNQVLESISIIDTPGILSGAKQRVSRGYDFPAVLRWFAERVDLIILLFDAHKLEISDEFSEAIGALRGHEDKIRVVLNKADMVETQQLMRVYGALMWALGKVVGTPEVLRVYIGSFWSQPLLVPDNRRLFELEEQDLFRDIQGLPRHAALRKLNDLVKRARLVRVHAYIISYLKKEMPSVFGKENKKKQLILKLPVIFAKIQLEHHISPGDFPDCQKMQELLMAHDFTKFHSLKPKLLEALDEMLTHDIAKLMPLLRQEELESTEVGVQGGAFEGTHMGPFVERGPDEAMEDGEEGSDDEAEWVVTKDKSKYDEIFYNLAPADGKLSGSKAKTWMVGTKLPNSVLGRIWKLSDVDRDGMLDDEEFALASHLIEAKLEGHGLPANLPRRLVPPSKRRHKGSAE
B3: ETFA (protein, UniProt P13804 20-333)
chain: QSTLVIAEHANDSLAPITLNTITAATRLGGEVSCLVAGTKCDKVAQDLCKVAGIAKVLVAQHDVYKGLLPEELTPLILATQKQFNYTHICAGASAFGKNLLPRVAAKLEVAPISDIIAIKSPDTFVRTIYAGNALCTVKCDEKVKVFSVRGTSFDAAATSGGSASSEKASSTSPVEISEWLDQKLTKSDRPELTGAKVVVSGGRGLKSGENFKLLYDLADQLHAAVGASRAAVDAGFVPNDMQVGQTGKIVAPELYIAVGISGAIQHLAGMKDSKTIVAINKDPEAPIFQVADYGIVADLFKVVPEMTEILKKK
B4: PA2G4 (protein, UniProt Q9UQ80 1-394)
chain: MSGEDEQQEQTIAEDLVVTKYKMGGDIANRVLRSLVEASSSGVSVLSLCEKGDAMIMEETGKIFKKEKEMKKGIAFPTSISVNNCVCHFSPLKSDQDYILKEGDLVKIDLGVHVDGFIANVAHTFVVDVAQGTQVTGRKADVIKAAHLCAEAALRLVKPGNQNTQVTEAWNKVAHSFNCTPIEGMLSHQLKQHVIDGEKTIIQNPTDQQKKDHEKAEFEVHEVYAVDVLVSSGEGKAKDAGQRTTIYKRDPSKQYGLKMKTSRAFFSEVERRFDAMPFTLRAFEDEKKARMGVVECAKHELLQPFNVLYEKEGEFVAQFKFTVLLMPNGPMRITSGPFEPDLYKSEMEVQDAELKALLQSSASRKTQKKKKKKASKTAENATSGETLEENEAGD
B5: DARS (protein, UniProt P14868 1-501)
chain: MPSASASRKSQEKPREIMDAAEDYAKERYGISSMIQSQEKPDRVLVRVRDLTIQKADEVVWVRARVHTSRAKGKQCFLVLRQQQFNVQALVAVGDHASKQMVKFAANINKESIVDVEGVVRKVNQKIGSCTQQDVELHVQKIYVISLAEPRLPLQLDDAVRPEAEGEEEGRATVNQDTRLDNRVIDLRTSTSQAVFRLQSGICHLFRETLINKGFVEIQTPKIISAASEGGANVFTVSYFKNNAYLAQSPQLYKQMCICADFEKVFSIGPVFRAEDSNTHRHLTEFVGLDIEMAFNYHYHEVMEEIADTMVQIFKGLQERFQTEIQTVNKQFPCEPFKFLEPTLRLEYCEALAMLREAGVEMGDEDDLSTPNEKLLGHLVKEKYDTDFYILDKYPLAVRPFYTMPDPRNPKQSNSYDMFMRGEEILSGAQRIHDPQLLTERALHHGIDLEKIKAYIDSFRFGAPPHAGGGIGLERVTMLFLGLHNVRQTSMFPRDPKRLTP
B6: PSAT1 (protein, UniProt Q9Y617 1-370)
chain: MDAPRQVVNFGPGPAKLPHSVLLEIQKELLDYKGVGISVLEMSHRSSDFAKIINNTENLVRELLAVPDNYKVIFLQGGGCGQFSAVPLNLIGLKAGRCADYVVTGAWSAKAAEEAKKFGTINIVHPKLGSYTKIPDPSTWNLNPDASYVYYCANETVHGVEFDFIPDVKGAVLVCDMSSNFLSKPVDVSKFGVIFAGAQKNVGSAGVTVVIVRDDLLGFALRECPSVLEYKVQAGNSSLYNTPPCFSIYVMGLVLEWIKNNGGAAAMEKLSSIKSQTIYEIIDNSQGFYVCPVEPQNRSKMNIPFRIGNAKGDDALEKRFLDKALELNMLSLKGHRSVGGIRASLYNAVTIEDVQKLAAFMKKFLEMHQL
B7: MARS (protein, UniProt P56192 1-900)
chain: MRLFVSDGVPGCLPVLAAAGRARGRAEVLISTVGPEDCVVPFLTRPKVPVLQLDSGNYLFSTSAICRYFFLLSGWEQDDLTNQWLEWEATELQPALSAALYYLVVQGKKGEDVLGSVRRALTHIDHSLSRQNCPFLAGETESLADIVLWGALYPLLQDPAYLPEELSALHSWFQTLSTQEPCQRAAETVLKQQGVLALRPYLQKQPQPSPAEGRAVTNEPEEEELATLSEEEIAMAVTAWEKGLESLPPLRPQQNPVLPVAGERNVLITSALPYVNNVPHLGNIIGCVLSADVFARYSRLRQWNTLYLCGTDEYGTATETKALEEGLTPQEICDKYHIIHADIYRWFNISFDIFGRTTTPQQTKITQDIFQQLLKRGFVLQDTVEQLRCEHCARFLADRFVEGVCPFCGYEEARGDQCDKCGKLINAVELKKPQCKVCRSCPVVQSSQHLFLDLPKLEKRLEEWLGRTLPGSDWTPNAQFITRSWLRDGLKPRCITRDLKWGTPVPLEGFEDKVFYVWFDATIGYLSITANYTDQWERWWKNPEQVDLYQFMAKDNVPFHSLVFPCSALGAEDNYTLVSHLIATEYLNYEDGKFSKSRGVGVFGDMAQDTGIPADIWRFYLLYIRPEGQDSAFSWTDLLLKNNSELLNNLGNFINRAGMFVSKFFGGYVPEMVLTPDDQRLLAHVTLELQHYHQLLEKVRIRDALRSILTISRHGNQYIQVNEPWKRIKGSEADRQRAGTVTGLAVNIAALLSVMLQPYMPTVSATIQAQLQLPPPACSILLTNFLCTLPAGHQIGTVSPLFQKLENDQIESLRQRFGGGQAKTSPKPAVVETVTTAKPQQIQALMDEVTKQGNIVRELKAQKADKNEVAAEVAKLLDLKKQLAVAEGKPPEAPKGKKKK
B8: Niemann-Pick Disease Type C Intracellular Cholesterol Transporter 2 (protein, UniProt P61916 20-151)
chain: EPVQFKDCGSVDGVIKEVNVSPCPTQPCQLSKGQSYSVNVTFTSNIQSKSSKAVVHGILMGVPVPFPIPEPDGCKSGINCPIQKDKTYSYLNKLPVKSEYPSIKLVVEWQLQDDKNQSLFCWEIPVQIVSHL

Protein sequences, listed by entry. Tags and fused reporters are not part of them. Residues count along the entry.
UniProt Q9NRX3: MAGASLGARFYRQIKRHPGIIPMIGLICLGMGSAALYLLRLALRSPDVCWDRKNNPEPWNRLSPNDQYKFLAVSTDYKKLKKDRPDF
UniProt P06733: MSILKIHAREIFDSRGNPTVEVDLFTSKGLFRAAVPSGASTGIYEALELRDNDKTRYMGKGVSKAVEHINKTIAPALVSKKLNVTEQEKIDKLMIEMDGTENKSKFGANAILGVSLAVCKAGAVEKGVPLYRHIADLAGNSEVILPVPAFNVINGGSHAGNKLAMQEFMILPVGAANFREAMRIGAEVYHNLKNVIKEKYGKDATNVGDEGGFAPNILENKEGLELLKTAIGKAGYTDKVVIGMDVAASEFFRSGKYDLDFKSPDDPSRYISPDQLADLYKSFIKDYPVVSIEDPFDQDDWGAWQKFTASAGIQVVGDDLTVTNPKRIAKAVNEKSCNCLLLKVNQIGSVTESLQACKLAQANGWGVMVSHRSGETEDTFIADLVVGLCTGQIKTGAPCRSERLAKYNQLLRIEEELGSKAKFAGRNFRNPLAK
UniProt O94925, residues 55-669: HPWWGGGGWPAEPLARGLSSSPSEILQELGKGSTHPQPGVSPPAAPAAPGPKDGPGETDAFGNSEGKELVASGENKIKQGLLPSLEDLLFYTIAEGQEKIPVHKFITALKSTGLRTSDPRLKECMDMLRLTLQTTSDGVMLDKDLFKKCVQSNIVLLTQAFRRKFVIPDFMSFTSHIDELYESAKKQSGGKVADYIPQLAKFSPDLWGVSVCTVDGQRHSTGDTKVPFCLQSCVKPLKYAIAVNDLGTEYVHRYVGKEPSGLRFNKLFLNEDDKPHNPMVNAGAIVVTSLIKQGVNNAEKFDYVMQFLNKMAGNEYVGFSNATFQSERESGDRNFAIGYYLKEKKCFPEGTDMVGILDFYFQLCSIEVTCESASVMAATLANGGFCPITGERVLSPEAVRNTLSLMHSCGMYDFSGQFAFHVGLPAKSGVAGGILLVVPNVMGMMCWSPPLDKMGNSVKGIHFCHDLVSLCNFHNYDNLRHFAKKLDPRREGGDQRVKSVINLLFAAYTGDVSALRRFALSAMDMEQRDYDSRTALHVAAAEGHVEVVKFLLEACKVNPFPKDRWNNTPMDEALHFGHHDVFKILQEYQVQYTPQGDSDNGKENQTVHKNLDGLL
UniProt P0DMV8: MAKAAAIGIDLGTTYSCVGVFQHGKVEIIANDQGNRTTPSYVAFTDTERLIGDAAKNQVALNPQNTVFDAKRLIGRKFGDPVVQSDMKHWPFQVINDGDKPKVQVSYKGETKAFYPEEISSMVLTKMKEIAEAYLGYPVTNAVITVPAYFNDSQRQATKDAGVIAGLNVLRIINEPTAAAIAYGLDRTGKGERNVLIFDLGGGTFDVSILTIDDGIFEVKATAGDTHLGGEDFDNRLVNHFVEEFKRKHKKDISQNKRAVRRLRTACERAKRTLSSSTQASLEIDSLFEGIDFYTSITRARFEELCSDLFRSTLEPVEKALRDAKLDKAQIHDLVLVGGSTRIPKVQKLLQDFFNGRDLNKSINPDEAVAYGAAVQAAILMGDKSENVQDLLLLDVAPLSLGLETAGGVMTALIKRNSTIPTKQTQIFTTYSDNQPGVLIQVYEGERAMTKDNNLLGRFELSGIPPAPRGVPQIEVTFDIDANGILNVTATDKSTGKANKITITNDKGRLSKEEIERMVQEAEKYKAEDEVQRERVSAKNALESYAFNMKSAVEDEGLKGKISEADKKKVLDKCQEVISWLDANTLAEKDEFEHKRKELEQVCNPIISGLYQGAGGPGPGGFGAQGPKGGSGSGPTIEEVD
UniProt P28838: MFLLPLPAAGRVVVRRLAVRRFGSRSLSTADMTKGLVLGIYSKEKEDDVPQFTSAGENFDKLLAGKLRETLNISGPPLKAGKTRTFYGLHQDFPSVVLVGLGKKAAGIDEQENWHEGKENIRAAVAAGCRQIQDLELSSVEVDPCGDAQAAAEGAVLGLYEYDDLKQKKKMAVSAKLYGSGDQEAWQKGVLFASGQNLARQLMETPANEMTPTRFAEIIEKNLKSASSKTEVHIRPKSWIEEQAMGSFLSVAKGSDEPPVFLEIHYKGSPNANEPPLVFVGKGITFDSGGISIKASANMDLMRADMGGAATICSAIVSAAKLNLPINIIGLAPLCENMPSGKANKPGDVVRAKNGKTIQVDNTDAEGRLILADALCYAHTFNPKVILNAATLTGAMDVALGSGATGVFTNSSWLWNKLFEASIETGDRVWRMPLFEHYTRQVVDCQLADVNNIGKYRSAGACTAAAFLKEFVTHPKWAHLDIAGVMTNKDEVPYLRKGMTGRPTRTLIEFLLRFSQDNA
UniProt Q9NZM1: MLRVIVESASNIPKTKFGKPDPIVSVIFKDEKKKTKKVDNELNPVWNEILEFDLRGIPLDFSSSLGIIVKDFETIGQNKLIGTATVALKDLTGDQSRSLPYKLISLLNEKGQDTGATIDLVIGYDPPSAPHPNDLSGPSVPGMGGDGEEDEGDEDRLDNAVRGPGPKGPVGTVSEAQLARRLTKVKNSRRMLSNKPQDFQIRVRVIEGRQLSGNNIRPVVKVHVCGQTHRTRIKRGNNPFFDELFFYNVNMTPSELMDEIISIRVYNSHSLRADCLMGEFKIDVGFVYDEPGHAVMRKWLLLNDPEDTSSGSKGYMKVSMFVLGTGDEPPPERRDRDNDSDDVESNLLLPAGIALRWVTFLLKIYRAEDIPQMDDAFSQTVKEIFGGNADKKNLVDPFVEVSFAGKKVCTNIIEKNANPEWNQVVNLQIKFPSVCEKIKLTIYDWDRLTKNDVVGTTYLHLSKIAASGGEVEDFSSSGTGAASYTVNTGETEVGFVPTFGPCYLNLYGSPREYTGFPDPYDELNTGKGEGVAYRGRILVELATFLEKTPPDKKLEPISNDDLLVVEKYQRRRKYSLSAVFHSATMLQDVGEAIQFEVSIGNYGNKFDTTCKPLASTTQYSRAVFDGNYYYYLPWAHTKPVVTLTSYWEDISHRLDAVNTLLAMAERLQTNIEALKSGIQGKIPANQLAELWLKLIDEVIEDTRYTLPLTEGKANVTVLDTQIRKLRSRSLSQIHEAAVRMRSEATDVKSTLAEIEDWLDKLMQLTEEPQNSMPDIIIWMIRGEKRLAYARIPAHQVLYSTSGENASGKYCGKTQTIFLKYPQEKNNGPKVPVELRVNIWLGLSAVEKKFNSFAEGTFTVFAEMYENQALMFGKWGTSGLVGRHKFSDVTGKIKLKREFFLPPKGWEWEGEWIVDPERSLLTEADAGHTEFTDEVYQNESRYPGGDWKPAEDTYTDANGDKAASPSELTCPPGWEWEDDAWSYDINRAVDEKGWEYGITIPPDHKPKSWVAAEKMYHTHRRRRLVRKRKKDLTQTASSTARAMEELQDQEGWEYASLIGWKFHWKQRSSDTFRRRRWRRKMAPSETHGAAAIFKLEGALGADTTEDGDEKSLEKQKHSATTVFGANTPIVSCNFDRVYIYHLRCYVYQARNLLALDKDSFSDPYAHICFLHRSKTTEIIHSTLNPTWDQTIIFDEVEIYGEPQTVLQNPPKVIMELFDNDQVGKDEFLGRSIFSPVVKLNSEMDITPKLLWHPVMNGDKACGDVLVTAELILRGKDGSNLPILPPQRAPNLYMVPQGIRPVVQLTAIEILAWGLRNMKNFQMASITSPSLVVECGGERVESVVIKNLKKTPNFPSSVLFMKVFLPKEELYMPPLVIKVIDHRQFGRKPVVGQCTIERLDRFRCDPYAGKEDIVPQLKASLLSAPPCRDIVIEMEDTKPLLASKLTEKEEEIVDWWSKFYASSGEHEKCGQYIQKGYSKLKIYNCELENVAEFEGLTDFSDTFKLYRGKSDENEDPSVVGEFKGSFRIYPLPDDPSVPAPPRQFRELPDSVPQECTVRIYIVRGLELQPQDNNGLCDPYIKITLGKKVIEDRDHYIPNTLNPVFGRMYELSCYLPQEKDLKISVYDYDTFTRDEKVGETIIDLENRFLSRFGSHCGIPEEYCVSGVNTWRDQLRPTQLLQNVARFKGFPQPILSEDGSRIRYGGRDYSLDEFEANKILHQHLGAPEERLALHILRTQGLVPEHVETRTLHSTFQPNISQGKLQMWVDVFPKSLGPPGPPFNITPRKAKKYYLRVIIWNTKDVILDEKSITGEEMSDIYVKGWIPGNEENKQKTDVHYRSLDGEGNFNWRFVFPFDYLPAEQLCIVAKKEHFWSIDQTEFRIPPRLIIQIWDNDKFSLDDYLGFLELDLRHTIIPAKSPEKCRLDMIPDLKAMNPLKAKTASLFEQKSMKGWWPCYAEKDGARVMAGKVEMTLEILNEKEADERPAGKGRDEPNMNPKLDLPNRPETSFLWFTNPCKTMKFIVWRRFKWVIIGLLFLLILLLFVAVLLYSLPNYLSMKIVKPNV
UniProt P55786: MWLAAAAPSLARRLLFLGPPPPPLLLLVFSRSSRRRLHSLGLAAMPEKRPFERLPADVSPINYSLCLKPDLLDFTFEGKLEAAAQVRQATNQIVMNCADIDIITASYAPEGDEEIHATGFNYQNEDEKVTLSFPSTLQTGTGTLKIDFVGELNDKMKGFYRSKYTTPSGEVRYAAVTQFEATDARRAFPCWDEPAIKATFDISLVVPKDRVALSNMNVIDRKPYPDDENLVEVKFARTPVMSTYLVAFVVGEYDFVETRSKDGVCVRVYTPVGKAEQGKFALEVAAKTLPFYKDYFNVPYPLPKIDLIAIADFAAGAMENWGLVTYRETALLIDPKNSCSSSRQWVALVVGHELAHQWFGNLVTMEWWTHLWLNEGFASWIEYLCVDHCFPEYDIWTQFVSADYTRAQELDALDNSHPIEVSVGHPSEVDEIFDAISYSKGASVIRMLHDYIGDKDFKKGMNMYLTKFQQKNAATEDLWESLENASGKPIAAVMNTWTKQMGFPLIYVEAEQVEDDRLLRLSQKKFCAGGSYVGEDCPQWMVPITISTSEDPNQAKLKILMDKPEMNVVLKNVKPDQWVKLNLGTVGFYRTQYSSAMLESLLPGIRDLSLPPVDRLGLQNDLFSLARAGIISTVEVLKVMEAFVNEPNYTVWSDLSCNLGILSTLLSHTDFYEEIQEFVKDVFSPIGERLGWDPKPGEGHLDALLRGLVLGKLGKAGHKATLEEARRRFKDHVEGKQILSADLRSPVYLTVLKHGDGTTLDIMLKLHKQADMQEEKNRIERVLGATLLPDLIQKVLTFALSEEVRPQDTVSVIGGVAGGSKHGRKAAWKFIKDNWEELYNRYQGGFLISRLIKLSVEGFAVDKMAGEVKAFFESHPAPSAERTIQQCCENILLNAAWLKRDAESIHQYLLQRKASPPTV
UniProt O15118, residues 23-1278: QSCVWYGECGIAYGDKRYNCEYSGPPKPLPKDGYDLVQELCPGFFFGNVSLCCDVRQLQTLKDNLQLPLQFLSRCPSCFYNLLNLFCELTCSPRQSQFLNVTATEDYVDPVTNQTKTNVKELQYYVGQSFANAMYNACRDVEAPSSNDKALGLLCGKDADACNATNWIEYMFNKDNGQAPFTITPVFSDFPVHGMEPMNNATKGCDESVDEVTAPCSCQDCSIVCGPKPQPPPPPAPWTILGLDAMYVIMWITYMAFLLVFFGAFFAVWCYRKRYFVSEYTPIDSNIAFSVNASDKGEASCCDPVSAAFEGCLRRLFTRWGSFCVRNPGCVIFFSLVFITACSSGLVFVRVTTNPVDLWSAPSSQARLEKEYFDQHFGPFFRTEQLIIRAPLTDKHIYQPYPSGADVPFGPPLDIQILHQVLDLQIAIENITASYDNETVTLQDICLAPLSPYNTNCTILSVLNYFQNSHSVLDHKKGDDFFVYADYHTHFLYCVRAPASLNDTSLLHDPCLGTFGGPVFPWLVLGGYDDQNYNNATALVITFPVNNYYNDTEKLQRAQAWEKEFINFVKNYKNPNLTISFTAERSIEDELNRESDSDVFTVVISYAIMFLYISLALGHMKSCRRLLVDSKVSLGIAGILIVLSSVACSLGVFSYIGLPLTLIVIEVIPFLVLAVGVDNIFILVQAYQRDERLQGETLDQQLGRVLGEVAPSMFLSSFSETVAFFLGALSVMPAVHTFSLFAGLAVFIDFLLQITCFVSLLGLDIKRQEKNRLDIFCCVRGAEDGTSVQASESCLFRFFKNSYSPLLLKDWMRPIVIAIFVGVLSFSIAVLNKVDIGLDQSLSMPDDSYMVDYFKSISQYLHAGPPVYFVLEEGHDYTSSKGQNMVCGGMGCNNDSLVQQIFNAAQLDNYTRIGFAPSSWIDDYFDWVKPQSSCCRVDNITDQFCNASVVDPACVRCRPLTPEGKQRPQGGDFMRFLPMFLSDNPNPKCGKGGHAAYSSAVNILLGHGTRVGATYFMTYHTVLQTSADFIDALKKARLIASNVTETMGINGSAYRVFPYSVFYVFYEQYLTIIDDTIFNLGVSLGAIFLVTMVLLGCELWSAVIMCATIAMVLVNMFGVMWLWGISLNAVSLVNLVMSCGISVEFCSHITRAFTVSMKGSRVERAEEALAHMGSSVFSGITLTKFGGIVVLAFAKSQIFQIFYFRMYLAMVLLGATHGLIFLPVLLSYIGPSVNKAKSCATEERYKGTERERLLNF

biological target: NADH dehydrogenase (ubiquinone) 1 alpha subcomplex, 4-like 2 (human (endogenous in RCC4)) (UniProt Q9NRX3); assay: affinity purification with mass spectrometry; NDUFA4L2 antibody (Abcam ab74138) coupled to Dynabeads M-270 Epoxy; 2 mg RIPA lysate of RCC4-P cells, 12 hours at 4°C, three washes in RIPA buffer; LC-MS/MS, label-free; controls: RCC4-KO-643 (NDUFA4L2 knockout) lysate and IgG beads

Molecule	binding
AHNAK2 (from UniProt Q8IVF2 1-5795)	binds
ATP6V1 E1 (from UniProt P36543 1-226)	binds
CAPZA2 (from UniProt P47755 1-286)	binds
EIF3K (from UniProt Q9UBQ5 1-218)	binds
ENO1 (from UniProt P06733 1-434)	binds
FLNA (from UniProt P21333 1-2647)	binds
G6PD (from UniProt P11413 1-515)	binds
GLS (from UniProt O94925 55-669)	binds
HSPA1A (from UniProt P0DMV8 1-641)	binds
LAP3 (from UniProt P28838 1-519)	binds
MYOF (from UniProt Q9NZM1 1-2061)	binds
NPEPPS (from UniProt P55786 1-919)	binds
Niemann-Pick Disease Type C Intracellular Cholesterol Transporter 1 (from UniProt O15118 23-1278)	binds
PCNA (from UniProt P12004 1-261)	binds
PFN2 (from UniProt P35080 1-140)	binds
PRKDC (from UniProt P78527 1-4128)	binds
PSMB4 (from UniProt P28070)	binds
PSMD5 (from UniProt Q16401 1-504)	binds
VCP (from UniProt P55072 1-806)	binds
B1	binds
B2	binds
B3	binds
B4	binds
B5	binds
B6	binds
B7	binds
B8	binds

— article PMC9897797
